Values from PubChem BioAssay AID1508597 (Cure First, 2020).
Shown is an unselected part of the about 2,100 reagents, under one of the conditions tested. 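Calls flag viability under 80% in either arm, not effects specific to rucaparib; the reference for percent is not stated.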 A number with no mark means an inactive call. The numbers tell different reagents against one gene apart. The record does not give: the 100% reference.

Purpose: 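Genes whose silencing sensitises or protects ovarian cancer cells against rucaparib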 (primary screen)
Cells: human ovarian carcinoma lines grown from tumours: OCI-P5x (papillary serous) and OCI-C5x (clear cell)
Knock-down reagent: siRNA pool against human genes, 1.25 pmol siRNA per well
Time to read-out: 72 h or 96 h, depending on the cell culture
Challenge: rucaparib 20 µM (about IC30) or vehicle, present until read-out
Rucaparib or vehicle: Rucaparib
Cell line: OCI-C5x (clear cell)
Detection: 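Luminescent ATP-based viability assay read 72 or 96 h after transfection, depending on culture, given as normalised percent viability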
Direction: viability, normalised: higher = more viable cells remaining
Call rule: 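a well counts as a hit if its normalised viability is under 80 percent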
Calls: active = viability under 80%; inactive = viability 80% or more

| gene knocked down | reagent | technical replicate | viability, normalised (%) |
| --- | --- | --- | --- |
| GJA10 | 1 | 1 | 53.9 (active) |
| GJA10 | 1 | 2 | 41.8 (active) |
| GJA10 | 1 | 3 | 57.5 (active) |
| LRRK1 | 1 | 1 | 55.7 (active) |
| LRRK1 | 1 | 2 | 45.6 (active) |
| LRRK1 | 1 | 3 | 41.2 (active) |
| PCDHB5 | 1 | 1 | 48.2 (active) |
| PCDHB5 | 1 | 2 | 43.4 (active) |
| PCDHB5 | 1 | 3 | 43 (active) |
| RIC8A | 1 | 1 | 31.9 (active) |
| RIC8A | 1 | 2 | 33.7 (active) |
| RIC8A | 1 | 3 | 27.7 (active) |
| MAPK14 | 1 | 1 | 50 (active) |
| MAPK14 | 1 | 2 | 53.8 (active) |
| MAPK14 | 1 | 3 | 51.5 (active) |
| DHX35 | 1 | 1 | 66.7 (active) |
| DHX35 | 1 | 2 | 55.7 (active) |
| DHX35 | 1 | 3 | 65.9 (active) |
| APPL1 | 1 | 1 | 78.8 (active) |
| APPL1 | 1 | 2 | 42.1 (active) |
| APPL1 | 1 | 3 | 41.4 (active) |
| SRSF1 | 1 | 1 | 51.4 (active) |
| SRSF1 | 1 | 2 | 31.7 (active) |
| SRSF1 | 1 | 3 | 41.3 (active) |
| DDX31 | 1 | 1 | 68.2 (active) |
| DDX31 | 1 | 2 | 58 (active) |
| DDX31 | 1 | 3 | 62.7 (active) |
| ABRAXAS1 | 1 | 1 | 64 (active) |
| ABRAXAS1 | 1 | 2 | 50.7 (active) |
| ABRAXAS1 | 1 | 3 | 55.9 (active) |
| ABRAXAS1 | 2 | 1 | 42 (active) |
| ABRAXAS1 | 2 | 2 | 48.3 (active) |
| ABRAXAS1 | 2 | 3 | 44.2 (active) |
| EPHA8 | 1 | 1 | 69.2 (active) |
| EPHA8 | 1 | 2 | 62.6 (active) |
| EPHA8 | 1 | 3 | 50.9 (active) |
| CLDN17 | 1 | 1 | 39.4 (active) |
| CLDN17 | 1 | 2 | 46.5 (active) |
| CLDN17 | 1 | 3 | 32.1 (active) |

6 of these entries, reformatted:
DHX35, technical replicate 1 | viability, normalised (%) = 66.7 (active)
DHX35, technical replicate 2 | viability, normalised (%) = 55.7 (active)
DHX35, technical replicate 3 | viability, normalised (%) = 65.9 (active)
APPL1, technical replicate 1 | viability, normalised (%) = 78.8 (active)
APPL1, technical replicate 2 | viability, normalised (%) = 42.1 (active)
APPL1, technical replicate 3 | viability, normalised (%) = 41.4 (active)
